Values from PubChem BioAssay AID1259308 (NCATS, 2017).
Screen: 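Genes whose loss raises luciferase production in HEK293 cells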 (primary screen). Cell system: human HEK293 embryonic kidney cells stably expressing firefly luciferase (HEK-CMV-Luc2-Hygro). Reagent: single siRNA against human genes, 0.8 pmol siRNA per well. Duration: 72 h. Read-out: 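Luciferase light (ONE-Glo) measured on one replicate plate set and viability (CellTiter-Glo) on the other, scaled to a negative control siRNA, with robust z-scores and luciferase per cell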. Direction: total luciferase, z-score: higher = more reporter protein produced. Hit rule: 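An siRNA counts as active if its total luciferase robust z-score exceeds 3; genes with two or more such siRNAs out of three were retested with fresh siRNAs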. Calls: active = raised luciferase; inactive = no rise.
The deposit covers about 59,000 reagents; shown is a random part of them. In the full data, about 1,510 (2.6%) are marked active. 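Calls use total luciferase alone and ignore viability, so some active siRNAs may act by altering cell number.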 Reagents against one gene are numbered here. Further read-outs or replicates are left out here. Reagent sequences are not shown.

Gene,reagent no.,"total luciferase, z-score",activity call
LDHC (lactate dehydrogenase C),1,-0.296,inactive
LDHC (lactate dehydrogenase C),2,-1.12,inactive
LDHC (lactate dehydrogenase C),3,0.194,inactive
NANOG (Nanog homeobox),1,0.663,inactive
NANOG (Nanog homeobox),2,1.99,inactive
NANOG (Nanog homeobox),3,0.125,inactive
HAUS8 (HAUS augmin like complex subunit 8),1,1.09,inactive
HAUS8 (HAUS augmin like complex subunit 8),2,0.78,inactive
HAUS8 (HAUS augmin like complex subunit 8),3,-0.843,inactive
TATDN1 (TatD DNase domain containing 1),1,0.893,inactive
TATDN1 (TatD DNase domain containing 1),2,1.43,inactive
TATDN1 (TatD DNase domain containing 1),3,0.683,inactive
FOXF2 (forkhead box F2),1,-0.0311,inactive
FOXF2 (forkhead box F2),2,-0.489,inactive
FOXF2 (forkhead box F2),3,0.817,inactive
"ADGRE4P (adhesion G protein-coupled receptor E4, pseudogene)",1,1.5,inactive
"ADGRE4P (adhesion G protein-coupled receptor E4, pseudogene)",2,0.063,inactive
"ADGRE4P (adhesion G protein-coupled receptor E4, pseudogene)",3,0.752,inactive
NEURL1 (neuralized E3 ubiquitin protein ligase 1),1,-0.173,inactive
NEURL1 (neuralized E3 ubiquitin protein ligase 1),2,0.412,inactive
NEURL1 (neuralized E3 ubiquitin protein ligase 1),3,-1.32,inactive
GUCD1 (guanylyl cyclase domain containing 1),1,-0.638,inactive
GUCD1 (guanylyl cyclase domain containing 1),2,0.307,inactive
GUCD1 (guanylyl cyclase domain containing 1),3,-0.9,inactive
MAGEB1 (MAGE family member B1),1,-0.0518,inactive
MAGEB1 (MAGE family member B1),2,1.06,inactive
MAGEB1 (MAGE family member B1),3,-0.968,inactive
DCN (decorin),1,-0.537,inactive
DCN (decorin),2,2,inactive
DCN (decorin),3,-2.91,inactive
ZIC1 (Zic family zinc finger 1),1,2.11,inactive
ZIC1 (Zic family zinc finger 1),2,0.61,inactive
ZIC1 (Zic family zinc finger 1),3,-2.05,inactive

Not a retest: an excerpt of the list.
Gene,reagent no.,"total luciferase, z-score",activity call
FOXF2 (forkhead box F2),2,-0.489,inactive
FOXF2 (forkhead box F2),3,0.817,inactive
"ADGRE4P (adhesion G protein-coupled receptor E4, pseudogene)",1,1.5,inactive

More records follow.
Gene,reagent no.,"total luciferase, z-score",activity call
TGM7 (transglutaminase 7),1,-1.72,inactive
TGM7 (transglutaminase 7),2,-0.83,inactive
TGM7 (transglutaminase 7),3,-0.596,inactive
BMP6 (bone morphogenetic protein 6),1,0.00679,inactive
BMP6 (bone morphogenetic protein 6),2,-0.594,inactive
BMP6 (bone morphogenetic protein 6),3,1.24,inactive
SLC67A2,1,0.911,inactive
SLC67A2,2,2.39,inactive
SLC67A2,3,-0.955,inactive
PIEZO2 (piezo type mechanosensitive ion channel component 2),1,-0.244,inactive
PIEZO2 (piezo type mechanosensitive ion channel component 2),2,0.89,inactive
PIEZO2 (piezo type mechanosensitive ion channel component 2),3,-1.27,inactive
PIEZO2 (piezo type mechanosensitive ion channel component 2),4,-0.107,inactive
PIEZO2 (piezo type mechanosensitive ion channel component 2),5,-0.521,inactive
PIEZO2 (piezo type mechanosensitive ion channel component 2),6,-0.827,inactive
OR5M11 (olfactory receptor family 5 subfamily M member 11),1,-0.268,inactive
OR5M11 (olfactory receptor family 5 subfamily M member 11),2,-0.822,inactive
OR5M11 (olfactory receptor family 5 subfamily M member 11),3,0.0232,inactive
KNTC1 (kinetochore associated 1),1,0.446,inactive
KNTC1 (kinetochore associated 1),2,-0.345,inactive
KNTC1 (kinetochore associated 1),3,-0.0569,inactive
ZNF391 (zinc finger protein 391),1,4.71,active
ZNF391 (zinc finger protein 391),2,0.491,inactive
ZNF391 (zinc finger protein 391),3,-0.45,inactive
